# Results are given in words; binding and its absence hold for the method and conditions named. In cells and extracts the contact can be indirect. These calls come from enrichment with a bait or labelling near it, and not all partners need be listed.
# B1: BAK (endogenous, HeLa cells), Q16611 1-211 (protein)
# chain: MASGQGPGPPRQECGEPALPSASEEQVAQDTEEVFRSYVFYRHQQEQEAEGVAAPADPEMVTLPLQPSSTMGQVGRQLAIIGDDINRRYDSEFQTMLQHLQPTAENAYEYFTKIATSLFESGINWGRVVALLGFGYRLALHVYQHGLTGFLGQVTRFVVDFMLHHCIARWIAQRGGWVAALNLGNGPILNVLVVLGVVLLGQFVVRRFFKS
# Biological target: FLAG-APEX2-BAX, Q07812
# Experiment: proximity labelling; APEX2 fusion in HeLa cells, apoptosis induced with 1 uM staurosporine for 3 h; biotin-phenol and H2O2; streptavidin beads from RIPA lysate; immunoblot for BAX and BAK
# Conditions: remark: other sources report otherwise
binder,measurement,value
B1,binding,binds

# Source: article PMC8901441
